Screening data, single-dose tests

The chains behind the UniProt entries cited, without tags or fusion partners. Residues count along the entry.
UniProt P9WNZ1, whole entry: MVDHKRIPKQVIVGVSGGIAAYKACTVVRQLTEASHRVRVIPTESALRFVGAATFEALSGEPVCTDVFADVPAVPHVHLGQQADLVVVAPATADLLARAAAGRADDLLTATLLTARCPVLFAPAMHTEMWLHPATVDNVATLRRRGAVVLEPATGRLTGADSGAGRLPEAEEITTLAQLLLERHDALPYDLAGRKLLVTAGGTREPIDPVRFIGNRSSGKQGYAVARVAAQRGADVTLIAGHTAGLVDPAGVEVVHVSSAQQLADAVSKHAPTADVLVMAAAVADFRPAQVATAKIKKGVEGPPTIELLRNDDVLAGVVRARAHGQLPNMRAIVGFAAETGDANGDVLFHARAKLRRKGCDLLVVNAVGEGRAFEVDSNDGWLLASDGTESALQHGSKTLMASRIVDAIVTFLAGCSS
UniProt P9WFT3, whole entry: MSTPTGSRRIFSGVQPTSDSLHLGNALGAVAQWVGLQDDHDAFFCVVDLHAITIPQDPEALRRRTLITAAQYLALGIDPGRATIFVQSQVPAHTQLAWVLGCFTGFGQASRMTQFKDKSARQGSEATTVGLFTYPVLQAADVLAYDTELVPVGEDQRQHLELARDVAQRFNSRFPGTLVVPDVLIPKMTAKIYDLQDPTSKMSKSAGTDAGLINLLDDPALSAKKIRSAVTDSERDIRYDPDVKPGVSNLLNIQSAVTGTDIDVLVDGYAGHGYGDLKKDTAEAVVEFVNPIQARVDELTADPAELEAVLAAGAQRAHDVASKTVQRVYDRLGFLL
UniProt A4I591, 1-473: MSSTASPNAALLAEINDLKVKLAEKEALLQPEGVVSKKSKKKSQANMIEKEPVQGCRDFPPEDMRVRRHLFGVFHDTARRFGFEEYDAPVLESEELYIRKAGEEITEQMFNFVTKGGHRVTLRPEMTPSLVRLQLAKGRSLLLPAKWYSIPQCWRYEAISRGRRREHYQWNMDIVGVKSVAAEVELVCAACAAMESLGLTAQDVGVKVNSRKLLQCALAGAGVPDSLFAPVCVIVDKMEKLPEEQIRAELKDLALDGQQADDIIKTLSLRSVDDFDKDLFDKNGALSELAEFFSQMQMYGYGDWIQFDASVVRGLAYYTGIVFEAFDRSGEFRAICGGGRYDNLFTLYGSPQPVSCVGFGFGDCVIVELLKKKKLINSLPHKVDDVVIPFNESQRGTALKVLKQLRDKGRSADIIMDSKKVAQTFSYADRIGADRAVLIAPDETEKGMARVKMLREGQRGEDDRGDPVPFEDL

The filed quantity is “Percent Effect” (%). The record does not define 0% and 100%; most values in the screen are far below 50% and negative numbers occur (in some assays of this library far below -100). Compounds were drawn at random from those tested, without regard to their results. A dash means the value is not listed here; it may have been measured.

CoaBC: 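Enzyme assay of CoaBC with a phosphate dye (Biomol Green) read at 650 nm. Target: Coenzyme A biosynthesis protein CoaBC, Mycobacterium tuberculosis (UniProt P9WNZ1). Tested at 30 µM. Direction is inferred from only a few compounds that gave an IC50; most scored high, so higher reads as stronger inhibition. Most strong results did not repeat in a second test. Size under these conditions: about 67,000 compounds, about 40 of them at 50% or above in at least one test.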
Toxoplasma: 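Assay of Toxoplasma gondii numbers, read through their beta-galactosidase reporter with a colour substrate. Compounds at 10 µM. The record gives no direction; the compounds picked for IC50 retests had high values, so higher reads as fewer parasites. Size under these conditions: about 67,000 compounds, about 260 of them at 50% or above in at least one test.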
Leishmania in macrophages: 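Cell assay of Leishmania donovani living inside macrophages; the read-out is not stated. Compounds at 30 µM. Direction is inferred from retests: higher values go with stronger inhibition. About 69,000 compounds were tested under these conditions; 1.5% (about 1,000) showed 50% or more at least once.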
MtTrpRS: 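Tryptophan-tRNA ligase, Mycobacterium tuberculosis (UniProt P9WFT3). Enzyme assay of tryptophanyl-tRNA synthetase; the read-out is not stated. Tested at 10 µM. Direction is not recorded; retested compounds ran higher, which suggests that high means inhibition. Size under these conditions: about 65,000 compounds, about 64 of them at 50% or above in at least one test.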
LiHisRS: 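Enzyme assay of histidyl-tRNA synthetase; the read-out is not stated. Target: Histidine-tRNA ligase, Leishmania infantum (UniProt A4I591). Concentration: 30 µM. The record gives no direction; compounds that gave an IC50 in retests scored well above the rest, so higher reads as stronger inhibition. The assay is labelled LdHisRS but filed under L. infantum. Of about 69,000 compounds tested this way, about 410 (0.6%) reached 50% or more in at least one test.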

compound,CoaBC,Toxoplasma,Leishmania in macrophages,MtTrpRS,LiHisRS
CC(NC(=O)N1CCCN(C)CC1)c1ccc2c(c1)OCCO2 (stereo unspecified),1.384,-4.51,12.7,2.041,19.47
CC(C)CCN1C[C@H]2C[C@H](C(=O)NCC(C)C)[C@@H](C1)O2,3.659,-,-,-,15.09
CC(C)NC(=O)N1CCCn2cnc(CN3CCCC3=O)c2C1,-7.407,6.535,-17.88,13.88,4.167
Cc1cnn(CC(C)NCc2nc(-c3ccsc3)oc2C)c1 (stereo unspecified),6.997,-24.02,23.18,-4.217,11.3
O=c1nc(CNc2ccccc2)[nH]n1Cc1ccccc1,4.453,-3.469,-15.47,-2.86,14.29
O=C(O)C(F)(F)F.O=C(O)C(F)(F)F.O=C(O)C(F)(F)F.[H][C@]12CCCC(N3CCN(c4ncccn4)CC3)[C@@]1([H])CN(CC1CC1)C2 (stereo partly specified),-,5.634,-3.175,-,-
COc1ccc(C2CCCN2Cc2ccc(S(=O)(=O)N(C)C)o2)cc1 (stereo unspecified),2.682,-31.43,20.54,6.383,15.18
CCC(CN1CCCC1)NC(=O)C1(c2ccc(F)cc2)CC1 (stereo unspecified),-6.165,3.707,52.84,-8.311,14.08
O=C(c1ccn(-c2ccc(F)cc2)n1)N1CCCC(n2ccnc2)C1 (stereo unspecified),9.868,-13.89,25.14,-7.866,16.07
CCc1nnc2n1CCN(C(=O)c1ccc3[nH]cnc3c1)C2,16.03,2.966,-4.321,12.7,12.5
CC(=O)N(Cc1ncc(C(C)C)o1)C1CCN(CCn2cccn2)C1 (stereo unspecified),6.745,-0.4308,12.88,-1.846,24.62
Cc1ccc(CN2CCOC3(COCCN(Cc4ccncc4)C3)C2)o1 (stereo unspecified),4.574,-,-,-1.137,11
Cc1occc1C(=O)N1CCC2(CC1)CN(c1ccccn1)CCO2.O=C(O)C(F)(F)F,-,-10.41,20.99,-,-
CC(C)c1nc2c(n1C)CCN(CC(=O)Nc1nccs1)C2,-6.667,5.966,39.98,2.424,8
COCC(=O)NC1CCCN(c2ccc(C)cc2)C1=O (stereo unspecified),13.27,20.18,23.36,1.31,18.31
CCCc1cc(C(=O)N[C@H](C)[C@@H](O)c2ccc(O)cc2)n(C)n1,0.2469,-8.075,13.63,-6.578,1.399
O=C(NCC1CCOC1)c1csc(-c2ccccc2)n1 (stereo unspecified),-0.3871,-3.396,14.38,-2.824,19.13
Cc1cnc(N2CCC3(CCN(Cc4csc(C)n4)C3=O)C2)nc1 (stereo unspecified),-0.2475,-,-,-,2.703
CN(C(=O)CN(Cc1cccc(O)c1)C1CCC(O)CC1)C1CC1 (stereo unspecified),2.991,-9.785,-2.354,-7.78,11.97
CC(C)[C@@H]1CN(S(=O)(=O)Cc2ccccc2)C[C@H]1C(=O)O,-1.629,-4.172,7.843,-7.235,-8.824
COCC(=O)NCCc1ccc(I)s1,9.677,4.682,20.4,-3.995,21.05
O=C(O)C(F)(F)F.[H][C@@]12CCN(c3cnccn3)C[C@]1([H])CN(C(=O)C1CCCO1)C2 (stereo partly specified),-,-6.066,2.671,-,-
O=C1N(c2ccsc2)CCC12CCCN(c1ncc(F)cn1)C2 (stereo unspecified),5.074,7.217,22.97,-,17.82
CC(C)(C)c1ccc(-n2ncc3c2CCCC3N)cc1 (stereo unspecified),8.751,50.93,27.02,1.924,16.67
Cc1cccc(CN2CCC3(CCN(c4ncccn4)CC3)C2=O)c1.O=C(O)C(F)(F)F,-,4.771,-4.431,-,-
O=c1[nH]c(-c2ccccc2F)nc2c1CCNC2,-5.144,5.36,17.01,-0.503,1.075
Fc1cccnc1Oc1cc(F)c(CN2CCCC2)c(F)c1,4.463,17.33,37.01,-0.7342,16.33
COCC1COCCC12CCN(S(=O)(=O)c1cccnc1)CC2 (stereo unspecified),3.515,-,-,-,7.692
CN(Cc1ccco1)C(=O)NC(Cn1ccnc1)C(C)(C)C (stereo unspecified),0.4969,-7.27,37.51,-0.8258,9.524
Cc1ccc(F)c(S(=O)(=O)NCc2cccc(CS(C)(=O)=O)c2)c1,2.948,14.89,-1.571,-0.2241,19.84
CCNC(=O)N1CCN(c2nc3ccccc3n2C)CC1,3.249,3.194,31.76,7.19,22.47
Cc1cc2c(cc1C(=O)N1CC[C@H](CO)[C@@H](O)C1)OCCO2,5.263,-5.208,2.524,3.091,17.14
Cc1cccc(NCc2ncc(C(C)(C)C)o2)c1,7.911,-5.67,-9.608,-8.645,16.88
O=C(CC1CCC2(CC1)CCN(Cc1cccnc1)CC2)N1CC=CC1,0.9877,-,-,-1.543,4.167

The last 2 entries again:

compound,CoaBC,Toxoplasma,Leishmania in macrophages,MtTrpRS,LiHisRS
Cc1cccc(NCc2ncc(C(C)(C)C)o2)c1,7.911,-5.67,-9.608,-8.645,16.88
O=C(CC1CCC2(CC1)CCN(Cc1cccnc1)CC2)N1CC=CC1,0.9877,-,-,-1.543,4.167

Source: ChEMBL document CHEMBL3988442, “University of Dundee, Small-Polar-MMV Screening Library” (2021).